Reference: patent US11690888B2, “Composition for preventing or treating menopausal syndrome, containing medicinal herb extract as active ingredient” (DONGGUK UNIVERSITY WISE CAMPUS INDUSTRY-ACADEMY COOPERATION …, priority 2017, dated 2023)
For at least one compound, name, drawing or mass did not settle the structure.

How the values were obtained:
[1] = tested on: VCD menopausal animal model; test: Weights and indices of heart, ovaries and uterus in VCD menopausal animal model; assay type: in vivo, C57BL/6 female mice; details: Estradiol group (2 mg/kg in feed, 15 weeks)
[2] = tested on: VCD menopausal animal model; test: Blood analysis (cortisol, total cholesterol, HDL, triglyceride, glucose) in VCD menopausal animal model; assay type: in vivo, C57BL/6 female mice; details: Estradiol group (2 mg/kg in feed, 15 weeks); vs VCD group; p<0.001; FIG. 13

## C[C@]12CC[C@@H]3c4ccc(O)cc4CC[C@H]3[C@@H]1CC[C@@H]2O [Estradiol, estradiol]
[1]; p<0.01, FIG. 7
  ovary index: significantly recovered
[1]; vs VCD group, FIG. 5
  heart index: restored to the Sham's level
[2]
  triglyceride: significantly decreased
